This passage reports binding results from article PMC3787020.

The chains behind the UniProt entries cited, without tags or fusion partners. Residues count along the entry.
UniProt Q14392, residues 20-662: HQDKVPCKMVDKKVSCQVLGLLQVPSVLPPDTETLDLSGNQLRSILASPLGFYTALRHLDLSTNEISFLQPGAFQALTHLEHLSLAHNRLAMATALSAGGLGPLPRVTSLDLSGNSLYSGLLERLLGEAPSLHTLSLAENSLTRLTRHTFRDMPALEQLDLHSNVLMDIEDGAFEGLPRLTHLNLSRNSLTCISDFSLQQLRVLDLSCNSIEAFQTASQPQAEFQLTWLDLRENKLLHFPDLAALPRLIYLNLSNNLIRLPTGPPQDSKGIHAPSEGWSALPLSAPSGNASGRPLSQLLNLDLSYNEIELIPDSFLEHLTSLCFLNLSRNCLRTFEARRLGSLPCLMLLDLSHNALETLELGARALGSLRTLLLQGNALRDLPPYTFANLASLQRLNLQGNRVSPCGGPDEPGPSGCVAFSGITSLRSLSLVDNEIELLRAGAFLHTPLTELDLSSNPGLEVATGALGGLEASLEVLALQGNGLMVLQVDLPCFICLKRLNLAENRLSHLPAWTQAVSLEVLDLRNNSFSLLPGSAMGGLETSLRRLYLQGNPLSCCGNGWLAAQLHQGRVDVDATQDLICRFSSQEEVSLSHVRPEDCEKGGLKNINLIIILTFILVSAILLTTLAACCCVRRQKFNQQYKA
UniProt P09958, residues 108-794: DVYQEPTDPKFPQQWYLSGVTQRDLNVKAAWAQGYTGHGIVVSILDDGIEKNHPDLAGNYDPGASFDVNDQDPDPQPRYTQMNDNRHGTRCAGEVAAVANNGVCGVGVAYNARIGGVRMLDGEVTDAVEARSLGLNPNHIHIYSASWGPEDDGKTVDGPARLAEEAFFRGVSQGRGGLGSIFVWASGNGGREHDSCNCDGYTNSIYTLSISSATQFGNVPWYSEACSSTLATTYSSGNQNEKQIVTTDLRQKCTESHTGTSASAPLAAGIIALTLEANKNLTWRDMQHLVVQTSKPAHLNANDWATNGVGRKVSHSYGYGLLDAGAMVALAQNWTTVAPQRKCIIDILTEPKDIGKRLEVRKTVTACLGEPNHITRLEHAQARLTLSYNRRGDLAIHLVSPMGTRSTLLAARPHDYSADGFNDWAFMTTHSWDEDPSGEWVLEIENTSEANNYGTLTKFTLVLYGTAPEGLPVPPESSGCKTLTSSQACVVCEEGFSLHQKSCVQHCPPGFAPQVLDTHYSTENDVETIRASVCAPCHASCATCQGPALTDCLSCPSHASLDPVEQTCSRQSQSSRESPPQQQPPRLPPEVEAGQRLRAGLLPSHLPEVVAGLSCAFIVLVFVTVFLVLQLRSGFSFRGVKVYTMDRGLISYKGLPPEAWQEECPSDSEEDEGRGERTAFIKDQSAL

The target in this assay is GARP (human), lentivirally transduced into human T cells (human) (UniProt Q14392). In words: co-IP; lysates of cells described in Figure 2 immunoprecipitated with anti-GARP or anti-FURIN antibodies; WB with anti-GARP, anti-TGF-β or anti-FURIN antibodies.

No constants are given. Whether binding was seen depends on the method and setting. Binding seen in cells or lysates may run through a third protein.

For “FURIN (pro-protein convertase) (from UniProt P09958 108-794) (enzyme)”, the binding entry was “no binding”.
